This note sets out measurements from the supplement of paper PMC8616043.

Where a name gives a salt, the structure may show the parent alone. The list shows a part of the results. Repeats in this data set agree poorly, so a single value says little.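 PR50, a 50-repeat proline–arginine dipeptide protein from C9ORF72 (ALS/FTD), was expressed by transfection in U-2 OS human cells stably carrying a GFP sensor with import and classical export signals. Per-well nuclear-minus-cytoplasm GFP, normalized between in-plate DMSO (low) and PR-only (high), was scored versus other test wells; compounds well below zero were hits reversing PR.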

The subject of this assay is U-2 OS NCT-C biosensor cells expressing PR50. The assay can be described thus: Z-score of normalised NCT-C biosensor translocation index in PR50-expressing cells; higher = more nuclear biosensor (more disrupted nuclear export). Particulars: 3 µM; 24 h.
Turning to `Cc1cc(Cn2cnc3c2C[C@@H](C(=O)O)N(C(=O)C(c2ccccc2)c2ccccc2)C3)ccc1N`, the Z-score was inactive: 2.67.

For `CC1(C)C[C@@H]1C(=O)N/C(=C\CCCCSC[C@H](N)C(=O)O)C(=O)O` [Cilastatin·Na], the Z-score is inactive: 0.762.

On to `CCCCCCC(=O)OC1CC(C)(C)NC(C)(C)C1` [TMPH  hydrochloride], for which the Z-score was inactive: 0.561.

For `Oc1cc2c(cc1O)CN(C(=S)NCCc1ccc(Cl)cc1)CCC2` [Capsazepine], the Z-score was inactive: -0.232.

In the case of `CCCCCN(CCCCC)C(=O)C(CCC(=O)O)NC(=O)c1ccc(Cl)c(Cl)c1` (configuration not stated) [Lorglumide sodium], the Z-score was inactive: -0.23.

As to `COc1ccc(S(=O)(=O)Nc2c(C)cc(C)cc2C)cc1`, the Z-score was inactive: -0.687.

As to `COc1ccc2[nH]c([S@@+]([O-])Cc3ncc(C)c(OC)c3C)nc2c1` [Esomeprazole magnesium dihydrate], the Z-score was inactive: -0.241.

As to `COc1ccc2[nH]c([S@@+]([O-])Cc3ncc(C)c(OC)c3C)nc2c1` [Esomeprazole Potassium], the Z-score is inactive: 0.695.

Consider `Cc1cc(NC2CCCCC2)nc(-n2nc(C)cc2C)n1`, for which the Z-score was inactive: -0.307.

Regarding `NCCSSCCN` [Cystamine dihydrochloride], the Z-score is inactive: -0.445.

Take `Nc1nc2c(ncn2COCCO)c(=O)[nH]1` [Acyclovir]: the Z-score was inactive: 0.653.

Consider `CC1(C)SCCN(S(=O)(=O)c2ccc(OCC#CCO)cc2)[C@H]1C(=O)NO` [Apratastat], for which the Z-score was inactive: -0.947.

For `COc1c(N2C[C@@H]3CCCN[C@@H]3C2)c(F)cc2c(=O)c(C(=O)O)cn(C3CC3)c12` [Moxifloxacin·HCl], the Z-score is inactive: 0.613.

Take `O=C(O)C(Cc1c[nH]c2ccccc12)N1C(=O)c2ccccc2C1=O` (configuration not stated): the Z-score is active: -1.97.

`CCOc1cc(CC(=O)N[C@@H](CC(C)C)c2ccccc2N2CCCCC2)ccc1C(=O)O` [Repaglinide]: the Z-score is inactive: -0.522.

In the case of `Cc1c(F)ccc(C(=O)Nc2cc([N+](=O)[O-])ccc2N2CCN(C)CC2)c1Cl`, the Z-score is active: -3.05.

As for `NC(CCCP(=O)(O)O)C(=O)O` (stereo not drawn) [D(-)-2-Amino-5-  phosphonopentan oic acid], the Z-score is inactive: 0.06.

Consider `C#C[C@]1(O)CC[C@H]2[C@@H]3CCc4cc(O)ccc4[C@H]3CC[C@@]21C` [Ethinyl Estradiol], for which the Z-score is inactive: 0.611.

As to `Nc1nc(N)c2nc(CNc3ccc(C(=O)N[C@@H](CCC(=O)O)C(=O)O)cc3)cnc2n1` [Aminopterin], the Z-score was inactive: 0.578.

On to `CCCCN(Cc1ccc(C(=O)NO)cc1)C(=O)Nc1ccccc1` [Nexturastat A], for which the Z-score is inactive: -1.37.

With `CC[C@H](NC(=O)c1c(C)c(-c2ccccc2)nc2ccccc12)c1ccccc1`, the Z-score was inactive: 0.931.

For the molecule `CCOC(=O)c1ncn2c1CN(C)C(=O)c1cc(F)ccc1-2` [Flumazenil], the Z-score was inactive: -0.679.

On to `O=NN(CCCl)C(=O)NCCCl` [Carmustine], for which the Z-score is inactive: 1.3.

Take `CN1[C@@H]2CC[C@H]1CC(OC(=O)c1c[nH]c3ccccc13)C2` (some centres not stated) [3-Tropanyl-indole- 3-carboxylate hydrochloride]: the Z-score is inactive: -0.327.

Consider `COc1cc(C(C)=O)ccc1OCCCN1CCC(c2noc3cc(F)ccc23)CC1` [Iloperidone], for which the Z-score was inactive: 0.0165.

For `CCCC1O[C@@H]2C[C@H]3[C@@H]4CCC5=CC(=O)C=C[C@]5(C)[C@H]4[C@@H](O)C[C@]3(C)[C@]2(C(=O)CO)O1` (some centres not stated) [Budesonide], the Z-score is inactive: 1.01.

With `COC(=O)c1c(C)[nH]c(C)c1C(=O)c1ccccc1Cc1ccccc1`, the Z-score is inactive: -0.409.

With `O=C(c1ccc2c(c1)OCCO2)N1CCCCC1`, the Z-score was inactive: 1.08.

For the molecule `CC(C)(CN1C(=O)C(Cl)=C(Cl)C1=O)CN1C(=O)C(Cl)=C(Cl)C1=O`, the Z-score was inactive: 4.46.

With `CC(C)[C@H]1c2ccc(F)cc2CC[C@@]1(CCN(C)CCCc1nc2ccccc2[nH]1)OC(=O)C1CC1`, the Z-score was inactive: -0.459.

As to `CC(C)OC(=O)CCC/C=C\C[C@@H]1[C@@H](/C=C/[C@@H](O)COc2cccc(C(F)(F)F)c2)[C@H](O)C[C@@H]1O` [Travoprost], the Z-score was inactive: -0.368.

As for `O=C1CN(/N=C/c2ccc(-c3ccc([N+](=O)[O-])cc3)o2)C(=O)N1` [Dantrolene sodium], the Z-score was inactive: -0.515.

In the case of `C[C@H](N)[C@H](O)c1cccc(O)c1` [Metaraminol Bitartrate], the Z-score was inactive: 0.209.

Regarding `O=c1cc2c(=O)oc3cc(O)c(O)oc3c2c(O)c1O` [Galloflavin], the Z-score was inactive: -0.762.

`OC1c2ccccc2N=C2CCCN21` (configuration not stated) [Peganole]: the Z-score was inactive: 0.453.

With `NCCCC(N)(C(=O)O)C(F)F` (racemic) [DL-alpha- Difluoromethyl ornithine HCl], the Z-score was inactive: -0.267.

In the case of `CC(C)N(CCCNC(=O)Nc1ccc(C(C)(C)C)cc1)C[C@H]1O[C@@H](n2cc(Br)c3c(N)ncnc32)[C@H](O)[C@@H]1O`, the Z-score is inactive: -1.3.

`COc1ccc(-c2csc(NC(=O)[C@H]3CCCCN3S(=O)(=O)c3ccc(C)cc3)n2)cc1`: the Z-score was inactive: -0.199.

For the molecule `c1ccc2c(c1)CN1CCCC1=N2` [Desoxypeganine], the Z-score is inactive: -1.08.

As for `NC(N)=NC(=O)c1nc(Cl)c(N2CCCCCC2)nc1N` [5-(N,N-  hexamethylene) amiloride], the Z-score was inactive: 0.353.

For the molecule `Cc1c(C(=O)O)c(O)cc2c1C(=O)c1c(O)c([C@@H]3O[C@H](CO)[C@@H](O)[C@H](O)[C@H]3O)c(O)c(O)c1C2=O` [Carminic acid], the Z-score was inactive: -0.604.

Take `O=c1cc(-c2ccccc2)oc2cc(O)cc(O)c12` [Chrysine]: the Z-score was inactive: -0.385.

`Nc1c2c(nc3ccccc13)CCCC2` [Tacrine·HCl]: the Z-score is inactive: 0.211.

As to `Nc1c2c(nc3ccccc13)CCCC2` [9-Amino-1,2,3,4-  tetrahydroacridine hydrochloride], the Z-score is inactive: 0.459.

Take `c1ccc2c3c([nH]c2c1)[C@H]1[C@@H]2CC[C@@H]([C@@H]4CCCN[C@@H]42)N1CC3` [Nitrarine·2HCl]: the Z-score was inactive: -0.513.

For the molecule `CCN(CC)C(=S)SSC(=S)N(CC)CC` [Disulfiram], the Z-score is inactive: -0.526.

For `C=C[C@@]1(C)CC(=O)[C@]2(O)[C@@]3(C)[C@@H](O)CCC(C)(C)[C@@H]3[C@H](O)[C@H](OC(C)=O)[C@@]2(C)O1` [Forskolin], the Z-score is inactive: 1.41.

With `CC1(C)O[C@@H]2C[C@H]3[C@@H]4CCC5=CC(=O)C=C[C@]5(C)[C@H]4[C@@H](O)C[C@]3(C)[C@]2(C(=O)CO)O1` [Desonide], the Z-score was inactive: -0.0249.

For `c1ccc(-c2ccccn2)nc1` [2,2'-Bipyridyl], the Z-score was inactive: -0.233.

As for `COc1ccccc1N1CCN(CCN(C(=O)c2ccc(F)cc2)c2ccccn2)CC1` [p-MPPF  dihydrochloride], the Z-score was inactive: -0.0326.

Regarding `CCNC(=O)CCC/C=C\C[C@@H]1[C@@H](/C=C/[C@@H](O)CCc2ccccc2)[C@H](O)C[C@@H]1O` [Bimatoprost], the Z-score was inactive: -0.23.

On to `CCCCOc1ccc(CC/C=C2\SC(=O)N(CCN)C2=O)cc1` [K145 hydrochloride], for which the Z-score was inactive: -0.464.

For `COC(=O)C1=C(C)NC(C)=C(C(=O)OC2CCCN(Cc3ccccc3)C2)C1c1cccc([N+](=O)[O-])c1` (configuration not stated) [Benidipine hydrochloride], the Z-score was inactive: 0.584.

On to `C[C@]12C[C@H](O)[C@H]3[C@@H](CCC4=CC(=O)CC[C@@]43C)[C@@H]1CC[C@@H]2C(=O)CO` [Corticosterone], for which the Z-score is inactive: 3.01.

For `O=C(/C=C/c1ccc(O)c(O)c1)c1ccc(O)cc1O` [Butein], the Z-score was inactive: 0.973.

With `COC(=O)C1=C(C)NC(C)=C([N+](=O)[O-])C1c1ccccc1C(F)(F)F` (racemic), the Z-score is inactive: 2.53.

Regarding `NC[C@H]1O[C@H](O[C@H]2[C@H](O)[C@@H](O[C@H]3O[C@H](CO)[C@@H](O)[C@H](N)[C@H]3O)[C@H](N)C[C@@H]2N)[C@H](O)[C@@H](O)[C@@H]1O` [Kanamycin Sulfate], the Z-score was inactive: -0.0399.

Regarding `NC[C@H]1O[C@H](O[C@H]2[C@H](O)[C@@H](O[C@H]3O[C@H](CO)[C@@H](O)[C@H](N)[C@H]3O)[C@H](N)C[C@@H]2N)[C@H](O)[C@@H](O)[C@@H]1O` [Kanamycin sulfate], the Z-score was inactive: -0.535.

In the case of `O=C(CCCCCCC(=O)Nc1ccccc1)NO` [Vorinostat], the Z-score was inactive: 0.911.

For the molecule `CCc1ccc2c(-c3cccc(Cl)c3)nc(=O)n(CC)c2n1`, the Z-score is inactive: -0.32.

As for `CSc1ccc2c(c1)C(N1CCN(C)CC1)Cc1ccccc1S2` (configuration not stated) [Methiothepin mesylate], the Z-score was inactive: 0.541.

In the case of `CC(C)(C)C(=O)Oc1ccc(S(=O)(=O)Nc2ccccc2C(=O)NCC(=O)O)cc1` [Sivelestat sodium salt hydrate], the Z-score was inactive: -0.819.

For `COc1cc(O)c2c(c1)oc(=O)c1c3cc(O)c(O)cc3oc21` [Wedelolactone], the Z-score is inactive: -0.515.

Turning to `COC(=O)[C@H]1[C@H]2C[C@H]3c4[nH]c5ccccc5c4CCN3C[C@@H]2CC[C@@H]1O` [Corynanthine], the Z-score is inactive: 0.744.

Turning to `COC(c1ccccc1)(c1ccccc1)[C@H](Oc1nc(C)cc(C)n1)C(=O)O` [Ambrisentan], the Z-score was inactive: 0.00453.

For `CC(C)N(C[C@H]1O[C@@H](n2cnc3c(N)ncnc32)[C@H](O)[C@@H]1O)[C@H]1C[C@@H](CCc2nc3cc(C(C)(C)C)ccc3[nH]2)C1`, the Z-score was inactive: -0.772.

`Cc1ccc(O)c(N=Nc2ccccc2)n1`: the Z-score was inactive: -0.652.
